Measurements published in publication PMC5679609 (PLoS ONE, 2017).
Positions count from the first letter of the chain named. Like-named read-outs stand apart in the source and are kept apart here. Results are given in words; binding and its absence hold for the method and conditions named. Binding seen in cells or lysates may run through a third protein. Some binding calls cover weakened binding; strength is not graded here. For some of these results: Sequences can lack the tags named with a protein. Blank lines part the entries; values can stand above or below the molecule they belong to.

Protein sequences, listed by entry. Tags and fused reporters are not part of them.
UniProt P61586: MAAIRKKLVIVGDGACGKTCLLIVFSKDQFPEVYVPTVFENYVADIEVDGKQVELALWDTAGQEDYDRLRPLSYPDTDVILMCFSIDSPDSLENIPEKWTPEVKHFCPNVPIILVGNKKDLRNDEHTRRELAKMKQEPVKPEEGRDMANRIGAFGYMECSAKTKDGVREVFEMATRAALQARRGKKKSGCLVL

What was measured:
[1] = target: T1, RhoGDI1 (GDP-dissociation inhibitor 1) (human (endogenous in MCF-7)) (UniProt P52565); experiment: co-IP; anti-RhoGDI1 antibody, lysates of the MCF-7 lines expressing the SDC4 constructs; Mg2+-lysis buffer; blot for GFP::SDC4, Rac1 or RhoA
T1 sequence: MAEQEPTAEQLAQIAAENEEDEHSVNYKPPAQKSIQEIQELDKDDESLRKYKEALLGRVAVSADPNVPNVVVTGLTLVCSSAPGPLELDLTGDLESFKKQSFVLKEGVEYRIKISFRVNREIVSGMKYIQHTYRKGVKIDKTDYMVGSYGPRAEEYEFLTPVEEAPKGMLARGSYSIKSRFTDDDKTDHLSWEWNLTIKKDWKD

[2] = target: T2, wild-type (wt) syndecan-4 with GFP in the extracellular domain (GFP::SDC4) (human) (UniProt P31431); experiment: co-IP; anti-GFP antibody (precipitates GFP::SDC4), lysates of the MCF-7 lines expressing the SDC4 constructs, nt MCF-7 as negative control; Mg2+-lysis buffer; blot for Rac1, Pak1 or RhoGDI1
T2 sequence: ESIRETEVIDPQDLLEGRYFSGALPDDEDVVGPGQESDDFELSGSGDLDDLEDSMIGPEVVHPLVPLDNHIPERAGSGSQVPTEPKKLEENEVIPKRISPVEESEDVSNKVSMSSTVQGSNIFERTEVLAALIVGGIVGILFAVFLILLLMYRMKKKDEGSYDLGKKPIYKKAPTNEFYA

[3] = target: T3, Ser179Ala SDC4 (non-phosphorylatable), with GFP in the extracellular domain (human) (UniProt P31431); experiment: as above
T3 sequence: T2 sequence with S161A

[4] = target: T4, Ser179Glu SDC4 (phosphomimetic), with GFP in the extracellular domain (human) (UniProt P31431); experiment: as above
T4 sequence: T2 sequence with S161E

[5] = target: T1, RhoGDI1 (GDP-dissociation inhibitor 1) (human (endogenous in MCF-7)); experiment: co-IP; anti-RhoGDI1 antibody, lysates of the MCF-7 lines expressing the SDC4 constructs; Mg2+-lysis buffer; blot for GFP::SDC4, Rac1 or RhoA; remark: listed apart in the source

Molecule: RhoA (from UniProt P61586 1-193)
- binding [1]: binds

B2: wild-type (wt) syndecan-4 with GFP in the extracellular domain (GFP::SDC4) (protein, UniProt P31431 19-198)
chain: T2 sequence
- binding [5]: binds

B4: Ser179Glu SDC4 (phosphomimetic), with GFP in the extracellular domain (natural protein, human, UniProt P31431 19-198, looked up)
chain: T2 sequence with S161E
notes: syndecan-4 (SDC4), human, GenBank CAG46871.1; GFP inserted into the extracellular domain at position 131; also called phosphomimetic SDC4; source: MCF-7, stably transfected, in lysate; not shown: GFP, internal (at position 131), kept
- binding [5]: binds

Next, values leading:

- binding [2]: binds
- binding [3]: binds
- binding [4]: binds
B1: RhoGDI1 (GDP-dissociation inhibitor 1) (protein, UniProt P52565 1-204)
chain: T1 sequence

- binding [5]: binds
B3: Ser179Ala SDC4 (non-phosphorylatable), with GFP in the extracellular domain (protein, UniProt P31431 19-198)
chain: T2 sequence with S161A
